This is one part of the list. Shown are side measurements of this screen, not its main read-out; they come without a call. The list favours compounds with an active or inconclusive main result. Words in brackets tell the shape of the fitted curve; partial curves, single points and poor fits give uncertain potencies.
assay: qHTS Assay to Find Inhibitors of Chronic Active B-Cell Receptor Signaling; conditions: ABC-DLBCL IkBa-CBG/CBR reporter, luminescence ratio (green luciferase fused to IkBa over red control in TMD8 lymphoma cells), 4 h; measured here: CBR red luminescence, cell number
Outline: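 TMD8 ABC-DLBCL cells carrying doxycycline-inducible green luciferase fused to IkappaBalpha plus unfused red luciferase were exposed to compounds (up to 46 uM) for 4 hrs at 37C. Activity came from the overlap-corrected green/red luminescence ratio.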

| Structure (SMILES) | AC50 |
| --- | --- |
| CS(=O)(=O)C1=NSC2=NC(=O)/C(=C\c3ccc(OC(=O)c4ccco4)c(Br)c3)C(=N)N21 | 1.26 µM [falling, full curve] |
| CCc1nnc(NS(=O)(=O)c2ccc(N/C=C(\C=O)c3nc4cc(Cl)ccc4o3)cc2)s1 | 35.5 µM [rising, partial curve, poor fit] |

From PubChem BioAssay AID493014 (National Center for Advancing Translational Sciences (NCATS), 2011)
